No constants are given. Whether binding was seen depends on the method and setting.
Target: phosphorylated ERK2 D321N (human) (UniProt P28482)
Assay: condition: 500 µM peptide in the syringe, 113 µM P-ERK2 D321N in the cell; ITC; Affinity ITC (TA-Instruments), reversed mode: ERK2 protein (90-145 µM) in the cell, peptide (500 µM) in the syringe; 30 °C; 20 mM Hepes pH 7.5, 0.15 M NaCl, 0.5 mM TCEP; single binding site model; both purified

B1: Kinase Interaction Motif (KIM) peptide of DUSP6 (peptide)
peptide: GIMLRRLQKGNLPVRAL
notes: Solubilised in 5% DMSO and diluted in buffer; also called KIM of DUSP6; KIM peptide DUSP6; source: synthetic peptide, bought: GenScript
binding: no binding
